Measurements taken from patent US10238744B2, “High load dispersions” (Austin Research Labs Corp., priority 2011, dated 2019).

Tested on: S. aureus 6538
Test: Time Kill of clay/polymer-BTC formulations
Type: cell-based
Protocol: Experiments were conducted during development of embodiments of the present invention to determine the difference in microbial reduction between an active ingredient bound to clay and a mixture of bound and free actives. A bentonite clay-benzethonium chloride (BTC) slurry was mixed by hydrating the clay in water, adding BTC solubilized in water, centrifuging and decanting the supernatant.
Both were added to an oil phase having the following components:
The Time Kill results are seen in Table 3:
The laponite mixtures were formed similarly to the bentonite described above. The Time Kill results are seen in Table 4:
A commercially available hydrophobically modified polymer, Polymer SK-M from Dow (polyquaternium 67, quaternized hydroxyl ethyl cellulose modified with dimethyl-dodecyl hydrophobic functionality to prevent solution but retaining significant hydrophilic function), was used to replace the natural clays used in the examples discussed above. An SK-M-BTC slurry was formed by dry mixing BTC and SK-M then hydrating overnight in water. In an alternate mixing method, SK-M was expanded in hot water and cooled after adding the remaining water. BTC was then added and allowed to sit overnight. A mixture was formed adding the slurry to a water-GEOGARD ULTRA-gluconate mixture to complete the water phase. GEOGUARD ULTRA (Lonza) is a preservative containing glucolactone and sodium benzoate. […]

**Q.** With CC(C)(C)CC(C)(C)c1ccc(OCCOCC[N+](C)(C)Cc2ccccc2)cc1 [BTC, benzethonium chloride] as the compound, how does the “kill of S. aureus (in words)” value (FIG. 1, bentonite experiment) read?
**A.** fast kill

**Q.** And the “kill of S. aureus (in words)” value (FIG. 2, LAPONITE experiment)?
**A.** fast kill
